# From article PMC11833509
# Sequences of proteins named here, by UniProt entry; tags and fusion partners are left off.
# UniProt O61307: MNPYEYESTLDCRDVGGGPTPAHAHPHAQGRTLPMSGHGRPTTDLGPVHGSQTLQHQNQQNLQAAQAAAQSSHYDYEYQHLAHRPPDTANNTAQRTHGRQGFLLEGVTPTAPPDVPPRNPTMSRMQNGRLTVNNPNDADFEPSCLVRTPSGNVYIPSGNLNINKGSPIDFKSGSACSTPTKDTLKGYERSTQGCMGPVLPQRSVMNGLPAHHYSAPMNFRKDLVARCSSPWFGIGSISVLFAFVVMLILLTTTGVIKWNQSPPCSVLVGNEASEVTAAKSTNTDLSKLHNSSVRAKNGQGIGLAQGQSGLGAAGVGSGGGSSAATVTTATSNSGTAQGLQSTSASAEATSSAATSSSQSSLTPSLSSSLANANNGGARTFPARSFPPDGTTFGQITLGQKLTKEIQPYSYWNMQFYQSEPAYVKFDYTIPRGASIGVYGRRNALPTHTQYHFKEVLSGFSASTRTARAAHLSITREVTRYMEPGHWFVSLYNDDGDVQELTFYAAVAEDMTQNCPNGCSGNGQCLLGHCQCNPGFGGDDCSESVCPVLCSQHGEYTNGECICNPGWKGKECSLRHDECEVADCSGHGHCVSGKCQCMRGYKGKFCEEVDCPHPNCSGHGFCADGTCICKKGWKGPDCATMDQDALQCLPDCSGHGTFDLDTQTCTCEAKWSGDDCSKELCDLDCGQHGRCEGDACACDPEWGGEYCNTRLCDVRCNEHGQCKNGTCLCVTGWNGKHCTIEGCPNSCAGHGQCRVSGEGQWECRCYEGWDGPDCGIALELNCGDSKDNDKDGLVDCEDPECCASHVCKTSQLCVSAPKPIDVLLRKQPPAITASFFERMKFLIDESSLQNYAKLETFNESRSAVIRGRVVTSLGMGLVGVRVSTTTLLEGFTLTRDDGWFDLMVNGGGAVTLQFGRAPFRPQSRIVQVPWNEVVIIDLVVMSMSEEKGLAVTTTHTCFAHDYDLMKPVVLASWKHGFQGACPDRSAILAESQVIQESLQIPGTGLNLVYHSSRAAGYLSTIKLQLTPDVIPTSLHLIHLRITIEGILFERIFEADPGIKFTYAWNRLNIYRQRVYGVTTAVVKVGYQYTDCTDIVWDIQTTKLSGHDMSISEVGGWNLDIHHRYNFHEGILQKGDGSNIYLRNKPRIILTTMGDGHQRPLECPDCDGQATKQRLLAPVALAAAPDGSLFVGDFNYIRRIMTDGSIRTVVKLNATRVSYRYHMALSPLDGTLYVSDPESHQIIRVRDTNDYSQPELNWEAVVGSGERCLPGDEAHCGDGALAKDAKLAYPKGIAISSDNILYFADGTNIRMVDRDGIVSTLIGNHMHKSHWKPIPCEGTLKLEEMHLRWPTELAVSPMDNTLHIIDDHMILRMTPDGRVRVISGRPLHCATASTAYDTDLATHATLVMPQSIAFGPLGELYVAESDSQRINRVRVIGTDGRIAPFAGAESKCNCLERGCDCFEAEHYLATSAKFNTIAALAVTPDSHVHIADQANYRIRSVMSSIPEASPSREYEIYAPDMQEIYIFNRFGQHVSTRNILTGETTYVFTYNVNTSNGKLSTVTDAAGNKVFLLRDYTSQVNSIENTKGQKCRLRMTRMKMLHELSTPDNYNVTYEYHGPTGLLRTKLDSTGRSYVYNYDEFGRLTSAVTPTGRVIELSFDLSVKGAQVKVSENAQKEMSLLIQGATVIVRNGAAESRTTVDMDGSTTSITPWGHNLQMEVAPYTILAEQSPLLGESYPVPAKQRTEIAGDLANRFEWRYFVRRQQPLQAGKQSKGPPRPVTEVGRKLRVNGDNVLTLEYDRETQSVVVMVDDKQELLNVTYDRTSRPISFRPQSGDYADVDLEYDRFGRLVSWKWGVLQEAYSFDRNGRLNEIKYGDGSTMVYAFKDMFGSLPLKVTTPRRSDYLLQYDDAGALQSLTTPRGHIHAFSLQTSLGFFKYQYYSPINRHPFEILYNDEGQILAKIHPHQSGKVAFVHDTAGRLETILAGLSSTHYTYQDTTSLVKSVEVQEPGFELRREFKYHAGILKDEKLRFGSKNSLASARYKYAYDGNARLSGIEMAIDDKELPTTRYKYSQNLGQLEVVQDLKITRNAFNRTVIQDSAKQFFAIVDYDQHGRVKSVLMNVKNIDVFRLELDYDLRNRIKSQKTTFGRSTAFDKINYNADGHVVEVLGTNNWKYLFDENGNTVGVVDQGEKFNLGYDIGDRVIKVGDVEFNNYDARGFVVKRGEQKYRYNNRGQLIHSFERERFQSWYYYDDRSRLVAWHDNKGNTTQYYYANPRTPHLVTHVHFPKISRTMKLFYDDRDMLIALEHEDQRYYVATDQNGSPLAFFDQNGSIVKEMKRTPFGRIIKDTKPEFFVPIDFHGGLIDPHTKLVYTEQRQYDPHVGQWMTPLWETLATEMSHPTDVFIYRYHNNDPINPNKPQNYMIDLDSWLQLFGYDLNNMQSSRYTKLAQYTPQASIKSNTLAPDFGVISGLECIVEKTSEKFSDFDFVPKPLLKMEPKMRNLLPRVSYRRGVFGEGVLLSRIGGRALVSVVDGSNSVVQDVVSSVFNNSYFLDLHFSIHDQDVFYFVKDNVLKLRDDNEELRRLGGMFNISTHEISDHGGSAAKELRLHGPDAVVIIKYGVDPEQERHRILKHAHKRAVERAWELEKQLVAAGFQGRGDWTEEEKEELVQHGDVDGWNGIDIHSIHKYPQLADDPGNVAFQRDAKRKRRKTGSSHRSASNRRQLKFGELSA
# UniProt Q9W1B0: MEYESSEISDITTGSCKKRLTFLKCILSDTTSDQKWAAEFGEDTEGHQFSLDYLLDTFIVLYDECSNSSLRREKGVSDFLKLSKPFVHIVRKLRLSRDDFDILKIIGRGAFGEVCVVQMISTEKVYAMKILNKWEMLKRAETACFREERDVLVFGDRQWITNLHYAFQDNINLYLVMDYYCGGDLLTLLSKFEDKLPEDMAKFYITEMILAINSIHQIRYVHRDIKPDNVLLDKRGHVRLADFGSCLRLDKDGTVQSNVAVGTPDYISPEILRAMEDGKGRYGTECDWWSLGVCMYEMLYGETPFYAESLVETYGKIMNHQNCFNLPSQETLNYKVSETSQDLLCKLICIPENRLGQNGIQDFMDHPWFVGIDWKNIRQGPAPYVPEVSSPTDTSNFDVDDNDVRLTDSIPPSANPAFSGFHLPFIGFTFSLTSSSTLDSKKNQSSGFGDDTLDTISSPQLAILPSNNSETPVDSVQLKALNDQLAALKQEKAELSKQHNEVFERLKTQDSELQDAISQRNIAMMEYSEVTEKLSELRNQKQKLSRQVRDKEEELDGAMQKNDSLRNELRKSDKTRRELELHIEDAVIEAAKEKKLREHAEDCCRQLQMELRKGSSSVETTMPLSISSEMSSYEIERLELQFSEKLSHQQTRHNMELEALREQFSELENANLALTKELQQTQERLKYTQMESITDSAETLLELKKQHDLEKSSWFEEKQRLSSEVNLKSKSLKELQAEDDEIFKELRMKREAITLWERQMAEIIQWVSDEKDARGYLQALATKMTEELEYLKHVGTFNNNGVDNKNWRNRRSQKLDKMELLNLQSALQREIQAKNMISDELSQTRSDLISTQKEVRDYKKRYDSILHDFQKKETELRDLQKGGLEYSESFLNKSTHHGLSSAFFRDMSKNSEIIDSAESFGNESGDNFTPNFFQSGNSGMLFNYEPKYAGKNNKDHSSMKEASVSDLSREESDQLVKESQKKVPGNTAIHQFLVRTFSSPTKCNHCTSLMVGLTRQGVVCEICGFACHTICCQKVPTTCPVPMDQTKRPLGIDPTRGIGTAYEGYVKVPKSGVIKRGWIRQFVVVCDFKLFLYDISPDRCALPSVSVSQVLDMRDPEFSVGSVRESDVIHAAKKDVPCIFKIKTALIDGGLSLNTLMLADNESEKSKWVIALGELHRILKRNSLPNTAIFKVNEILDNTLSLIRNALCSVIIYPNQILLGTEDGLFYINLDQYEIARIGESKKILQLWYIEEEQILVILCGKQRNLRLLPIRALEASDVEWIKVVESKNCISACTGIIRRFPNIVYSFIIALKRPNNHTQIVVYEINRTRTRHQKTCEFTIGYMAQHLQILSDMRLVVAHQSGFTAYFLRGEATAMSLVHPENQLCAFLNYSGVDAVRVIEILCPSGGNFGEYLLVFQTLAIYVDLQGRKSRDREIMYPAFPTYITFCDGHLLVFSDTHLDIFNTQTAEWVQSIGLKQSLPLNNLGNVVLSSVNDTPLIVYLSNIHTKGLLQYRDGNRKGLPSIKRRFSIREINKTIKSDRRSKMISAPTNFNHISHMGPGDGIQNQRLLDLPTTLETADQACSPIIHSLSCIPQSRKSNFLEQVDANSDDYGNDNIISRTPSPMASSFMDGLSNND
# UniProt Q9V9S7: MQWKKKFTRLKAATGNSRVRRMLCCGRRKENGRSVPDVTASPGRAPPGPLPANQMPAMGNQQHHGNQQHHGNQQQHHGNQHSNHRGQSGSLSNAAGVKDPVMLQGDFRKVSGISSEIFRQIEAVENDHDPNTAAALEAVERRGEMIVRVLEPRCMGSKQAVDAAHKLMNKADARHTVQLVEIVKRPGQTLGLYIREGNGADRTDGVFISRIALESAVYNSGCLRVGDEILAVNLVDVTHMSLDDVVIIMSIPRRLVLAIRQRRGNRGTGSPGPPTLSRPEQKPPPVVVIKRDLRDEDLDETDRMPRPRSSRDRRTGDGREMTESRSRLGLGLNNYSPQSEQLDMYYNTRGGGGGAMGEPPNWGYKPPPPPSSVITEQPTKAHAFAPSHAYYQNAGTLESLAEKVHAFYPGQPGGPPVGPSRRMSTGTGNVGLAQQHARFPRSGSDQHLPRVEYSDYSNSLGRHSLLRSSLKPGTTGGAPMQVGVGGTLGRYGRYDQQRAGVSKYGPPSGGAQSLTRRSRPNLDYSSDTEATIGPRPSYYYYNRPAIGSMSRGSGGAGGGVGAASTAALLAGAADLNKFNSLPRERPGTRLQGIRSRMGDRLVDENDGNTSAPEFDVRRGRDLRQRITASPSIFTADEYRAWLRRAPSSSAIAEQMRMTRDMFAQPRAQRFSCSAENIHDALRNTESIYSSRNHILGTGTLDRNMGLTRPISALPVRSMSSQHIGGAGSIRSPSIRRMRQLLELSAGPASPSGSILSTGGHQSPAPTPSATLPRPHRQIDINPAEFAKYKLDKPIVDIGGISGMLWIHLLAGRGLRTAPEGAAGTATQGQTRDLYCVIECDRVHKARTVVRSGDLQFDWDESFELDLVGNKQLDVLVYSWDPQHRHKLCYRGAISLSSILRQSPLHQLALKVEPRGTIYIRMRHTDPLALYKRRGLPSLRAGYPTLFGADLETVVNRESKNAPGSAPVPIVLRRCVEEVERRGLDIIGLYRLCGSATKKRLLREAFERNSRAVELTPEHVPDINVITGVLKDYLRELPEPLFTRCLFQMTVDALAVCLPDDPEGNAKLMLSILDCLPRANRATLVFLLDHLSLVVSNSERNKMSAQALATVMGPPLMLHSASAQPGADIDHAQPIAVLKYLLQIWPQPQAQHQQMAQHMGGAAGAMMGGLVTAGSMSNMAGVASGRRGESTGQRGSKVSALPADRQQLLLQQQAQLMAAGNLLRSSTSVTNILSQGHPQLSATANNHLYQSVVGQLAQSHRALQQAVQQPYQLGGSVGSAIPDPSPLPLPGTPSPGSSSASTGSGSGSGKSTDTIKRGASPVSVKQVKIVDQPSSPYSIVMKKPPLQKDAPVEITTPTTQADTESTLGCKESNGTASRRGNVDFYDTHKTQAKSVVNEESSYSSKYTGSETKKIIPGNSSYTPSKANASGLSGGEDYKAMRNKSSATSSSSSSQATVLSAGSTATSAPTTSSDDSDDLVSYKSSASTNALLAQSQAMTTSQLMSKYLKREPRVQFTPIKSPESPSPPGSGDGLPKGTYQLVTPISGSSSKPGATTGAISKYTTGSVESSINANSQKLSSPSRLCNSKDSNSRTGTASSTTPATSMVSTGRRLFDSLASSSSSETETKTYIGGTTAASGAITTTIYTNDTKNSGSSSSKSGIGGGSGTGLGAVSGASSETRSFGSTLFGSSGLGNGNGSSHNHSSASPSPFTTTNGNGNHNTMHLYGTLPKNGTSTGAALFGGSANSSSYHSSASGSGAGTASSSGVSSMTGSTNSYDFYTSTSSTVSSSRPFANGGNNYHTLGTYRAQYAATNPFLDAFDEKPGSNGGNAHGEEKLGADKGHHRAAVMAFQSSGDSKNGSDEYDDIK
# Molecular target: APEX2-V5-Ten-m (CRISPR knock-in at the endogenous Ten-m locus) (Drosophila melanogaster (endogenous in pupal brain)) (UniProt O61307)
# Experiment: proximity labelling; APEX2-V5-Ten-m knock-in pupal brains at 48h APF; 100 μM biotin-phenol 1 h on ice, 1 mM H2O2 1 min; streptavidin enrichment, 6-plex TMT LC-MS/MS; ratios against negative control and CD4-APEX2-V5 spatial reference
row,binding,Substance
1,binds,"Genghis Khan (Gek), endogenous (from UniProt Q9W1B0 1-1637)"
2,binds,"RhoGAP100F (Syd1), endogenous (from UniProt Q9V9S7 1-1866)"

# Results are given in words; binding and its absence hold for the method and conditions named. Binding seen in cells or lysates may run through a third protein. A yes stands for co-enrichment or nearness to the bait. Other partners may have been found.
